# Assay results from paper PMC5451543.
# Chains of the proteins cited; added tags and fusions are not shown.
# UniProt P25786: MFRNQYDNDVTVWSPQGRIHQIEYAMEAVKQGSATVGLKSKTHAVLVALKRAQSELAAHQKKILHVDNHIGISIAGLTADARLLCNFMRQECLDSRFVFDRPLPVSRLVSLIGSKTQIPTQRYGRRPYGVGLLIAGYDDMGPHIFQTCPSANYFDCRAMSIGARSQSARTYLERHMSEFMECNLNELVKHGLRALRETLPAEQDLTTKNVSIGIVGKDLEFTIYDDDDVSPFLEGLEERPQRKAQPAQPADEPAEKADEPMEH
# UniProt P62191: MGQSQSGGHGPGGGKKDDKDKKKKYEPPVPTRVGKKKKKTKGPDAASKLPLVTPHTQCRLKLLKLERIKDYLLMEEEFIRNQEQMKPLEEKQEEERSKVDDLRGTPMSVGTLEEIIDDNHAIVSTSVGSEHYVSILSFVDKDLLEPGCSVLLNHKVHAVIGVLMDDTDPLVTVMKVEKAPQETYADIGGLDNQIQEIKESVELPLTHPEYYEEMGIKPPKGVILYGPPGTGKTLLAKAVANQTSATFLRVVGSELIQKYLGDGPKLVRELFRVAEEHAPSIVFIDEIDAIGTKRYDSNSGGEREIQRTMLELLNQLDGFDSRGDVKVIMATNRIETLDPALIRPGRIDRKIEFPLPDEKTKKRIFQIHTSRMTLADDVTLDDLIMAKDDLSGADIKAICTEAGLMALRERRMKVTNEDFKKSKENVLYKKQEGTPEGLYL
# UniProt P62195: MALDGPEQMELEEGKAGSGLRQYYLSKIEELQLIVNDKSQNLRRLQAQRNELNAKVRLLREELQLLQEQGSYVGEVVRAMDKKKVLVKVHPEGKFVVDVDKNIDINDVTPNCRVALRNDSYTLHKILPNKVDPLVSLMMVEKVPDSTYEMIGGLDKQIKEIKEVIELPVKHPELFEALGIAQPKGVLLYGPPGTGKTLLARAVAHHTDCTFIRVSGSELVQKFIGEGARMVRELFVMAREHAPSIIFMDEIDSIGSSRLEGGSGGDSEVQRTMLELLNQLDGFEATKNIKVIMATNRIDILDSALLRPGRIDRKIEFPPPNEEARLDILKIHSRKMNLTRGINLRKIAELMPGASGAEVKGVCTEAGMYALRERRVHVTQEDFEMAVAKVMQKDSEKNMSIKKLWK
# UniProt P62333: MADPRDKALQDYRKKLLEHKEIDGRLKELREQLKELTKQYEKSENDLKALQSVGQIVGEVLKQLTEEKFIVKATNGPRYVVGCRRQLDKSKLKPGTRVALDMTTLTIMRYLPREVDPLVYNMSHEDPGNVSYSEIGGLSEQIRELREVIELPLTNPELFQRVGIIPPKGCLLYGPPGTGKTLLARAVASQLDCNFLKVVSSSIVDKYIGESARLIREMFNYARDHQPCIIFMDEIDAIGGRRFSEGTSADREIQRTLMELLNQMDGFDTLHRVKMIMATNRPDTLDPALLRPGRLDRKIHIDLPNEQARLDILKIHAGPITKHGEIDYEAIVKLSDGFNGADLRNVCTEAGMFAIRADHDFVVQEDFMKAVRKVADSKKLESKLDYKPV
# UniProt O43242: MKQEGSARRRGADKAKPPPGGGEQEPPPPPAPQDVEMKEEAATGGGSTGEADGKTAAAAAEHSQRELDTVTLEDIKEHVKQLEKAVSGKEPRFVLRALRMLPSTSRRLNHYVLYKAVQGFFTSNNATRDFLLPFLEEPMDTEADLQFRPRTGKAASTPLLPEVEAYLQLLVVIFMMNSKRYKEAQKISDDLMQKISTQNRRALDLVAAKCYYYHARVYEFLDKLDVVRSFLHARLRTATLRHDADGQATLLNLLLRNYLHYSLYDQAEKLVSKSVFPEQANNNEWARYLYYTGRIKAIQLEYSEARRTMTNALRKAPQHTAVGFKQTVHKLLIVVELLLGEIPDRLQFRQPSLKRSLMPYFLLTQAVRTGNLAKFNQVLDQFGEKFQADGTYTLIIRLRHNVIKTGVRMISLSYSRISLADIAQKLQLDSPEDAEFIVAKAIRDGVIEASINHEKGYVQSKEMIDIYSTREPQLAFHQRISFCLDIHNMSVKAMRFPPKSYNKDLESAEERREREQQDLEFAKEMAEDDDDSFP
# UniProt Q15008: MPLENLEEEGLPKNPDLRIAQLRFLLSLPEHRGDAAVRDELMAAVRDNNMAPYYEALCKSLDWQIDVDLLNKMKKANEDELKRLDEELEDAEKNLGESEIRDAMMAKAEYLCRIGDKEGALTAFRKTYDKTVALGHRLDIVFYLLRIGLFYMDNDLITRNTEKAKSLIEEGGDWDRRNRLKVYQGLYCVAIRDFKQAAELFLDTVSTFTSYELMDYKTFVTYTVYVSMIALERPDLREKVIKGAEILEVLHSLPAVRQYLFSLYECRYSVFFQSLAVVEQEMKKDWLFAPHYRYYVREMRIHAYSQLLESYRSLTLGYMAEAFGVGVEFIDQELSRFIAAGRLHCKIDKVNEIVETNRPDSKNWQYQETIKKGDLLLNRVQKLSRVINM
# UniProt P51665: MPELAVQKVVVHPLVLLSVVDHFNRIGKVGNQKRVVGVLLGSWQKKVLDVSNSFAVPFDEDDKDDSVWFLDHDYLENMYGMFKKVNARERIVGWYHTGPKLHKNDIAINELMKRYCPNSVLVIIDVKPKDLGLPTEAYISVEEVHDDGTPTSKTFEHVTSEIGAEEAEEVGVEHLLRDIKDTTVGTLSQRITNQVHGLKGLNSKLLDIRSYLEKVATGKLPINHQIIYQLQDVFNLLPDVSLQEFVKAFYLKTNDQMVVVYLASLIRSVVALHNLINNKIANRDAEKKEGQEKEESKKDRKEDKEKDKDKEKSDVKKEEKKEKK
# UniProt O75832: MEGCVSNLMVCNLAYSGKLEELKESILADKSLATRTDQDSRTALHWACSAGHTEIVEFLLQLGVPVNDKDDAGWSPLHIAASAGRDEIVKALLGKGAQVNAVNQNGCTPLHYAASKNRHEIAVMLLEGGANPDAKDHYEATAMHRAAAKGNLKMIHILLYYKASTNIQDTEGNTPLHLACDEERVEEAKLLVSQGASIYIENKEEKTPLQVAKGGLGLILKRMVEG
# UniProt O00232: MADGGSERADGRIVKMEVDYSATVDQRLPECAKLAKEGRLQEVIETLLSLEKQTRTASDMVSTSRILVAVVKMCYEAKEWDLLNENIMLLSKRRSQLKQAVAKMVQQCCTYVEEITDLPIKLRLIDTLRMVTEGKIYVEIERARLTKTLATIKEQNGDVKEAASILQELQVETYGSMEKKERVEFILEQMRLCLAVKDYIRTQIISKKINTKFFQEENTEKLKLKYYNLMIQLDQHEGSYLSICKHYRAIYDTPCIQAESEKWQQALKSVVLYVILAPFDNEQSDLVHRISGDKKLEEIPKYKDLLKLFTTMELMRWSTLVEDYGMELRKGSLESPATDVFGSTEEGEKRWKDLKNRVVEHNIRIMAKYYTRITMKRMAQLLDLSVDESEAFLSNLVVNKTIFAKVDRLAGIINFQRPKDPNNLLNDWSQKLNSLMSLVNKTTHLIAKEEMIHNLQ
# UniProt Q9UNM6: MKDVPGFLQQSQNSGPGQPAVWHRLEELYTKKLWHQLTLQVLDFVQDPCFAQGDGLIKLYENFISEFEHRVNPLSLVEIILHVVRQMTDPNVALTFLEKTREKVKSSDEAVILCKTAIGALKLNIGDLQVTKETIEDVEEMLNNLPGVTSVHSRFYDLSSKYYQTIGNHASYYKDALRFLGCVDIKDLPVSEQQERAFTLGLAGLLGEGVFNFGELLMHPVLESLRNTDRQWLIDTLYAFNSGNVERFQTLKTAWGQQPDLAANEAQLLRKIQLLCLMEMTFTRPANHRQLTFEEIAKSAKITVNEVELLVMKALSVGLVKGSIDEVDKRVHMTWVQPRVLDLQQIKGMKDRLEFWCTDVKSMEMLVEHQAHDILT
# UniProt O00487: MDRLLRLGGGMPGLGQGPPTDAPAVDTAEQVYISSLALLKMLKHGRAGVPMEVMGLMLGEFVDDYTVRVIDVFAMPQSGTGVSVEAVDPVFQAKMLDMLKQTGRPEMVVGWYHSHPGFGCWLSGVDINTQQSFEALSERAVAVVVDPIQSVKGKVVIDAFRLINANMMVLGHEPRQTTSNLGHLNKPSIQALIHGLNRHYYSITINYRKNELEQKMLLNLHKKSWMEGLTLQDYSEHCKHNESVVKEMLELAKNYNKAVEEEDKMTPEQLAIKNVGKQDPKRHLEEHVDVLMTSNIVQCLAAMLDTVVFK
# UniProt Q9BRP4: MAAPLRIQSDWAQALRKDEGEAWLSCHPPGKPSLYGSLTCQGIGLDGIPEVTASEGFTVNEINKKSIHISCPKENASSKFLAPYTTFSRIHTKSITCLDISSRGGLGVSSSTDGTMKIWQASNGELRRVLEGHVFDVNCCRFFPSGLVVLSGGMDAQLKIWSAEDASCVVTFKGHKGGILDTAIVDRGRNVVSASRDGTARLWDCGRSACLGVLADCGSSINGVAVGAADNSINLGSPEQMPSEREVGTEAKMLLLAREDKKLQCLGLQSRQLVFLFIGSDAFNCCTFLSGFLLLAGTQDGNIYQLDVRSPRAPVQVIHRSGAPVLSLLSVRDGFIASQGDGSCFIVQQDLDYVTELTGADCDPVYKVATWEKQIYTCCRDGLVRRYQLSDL
# UniProt Q13200: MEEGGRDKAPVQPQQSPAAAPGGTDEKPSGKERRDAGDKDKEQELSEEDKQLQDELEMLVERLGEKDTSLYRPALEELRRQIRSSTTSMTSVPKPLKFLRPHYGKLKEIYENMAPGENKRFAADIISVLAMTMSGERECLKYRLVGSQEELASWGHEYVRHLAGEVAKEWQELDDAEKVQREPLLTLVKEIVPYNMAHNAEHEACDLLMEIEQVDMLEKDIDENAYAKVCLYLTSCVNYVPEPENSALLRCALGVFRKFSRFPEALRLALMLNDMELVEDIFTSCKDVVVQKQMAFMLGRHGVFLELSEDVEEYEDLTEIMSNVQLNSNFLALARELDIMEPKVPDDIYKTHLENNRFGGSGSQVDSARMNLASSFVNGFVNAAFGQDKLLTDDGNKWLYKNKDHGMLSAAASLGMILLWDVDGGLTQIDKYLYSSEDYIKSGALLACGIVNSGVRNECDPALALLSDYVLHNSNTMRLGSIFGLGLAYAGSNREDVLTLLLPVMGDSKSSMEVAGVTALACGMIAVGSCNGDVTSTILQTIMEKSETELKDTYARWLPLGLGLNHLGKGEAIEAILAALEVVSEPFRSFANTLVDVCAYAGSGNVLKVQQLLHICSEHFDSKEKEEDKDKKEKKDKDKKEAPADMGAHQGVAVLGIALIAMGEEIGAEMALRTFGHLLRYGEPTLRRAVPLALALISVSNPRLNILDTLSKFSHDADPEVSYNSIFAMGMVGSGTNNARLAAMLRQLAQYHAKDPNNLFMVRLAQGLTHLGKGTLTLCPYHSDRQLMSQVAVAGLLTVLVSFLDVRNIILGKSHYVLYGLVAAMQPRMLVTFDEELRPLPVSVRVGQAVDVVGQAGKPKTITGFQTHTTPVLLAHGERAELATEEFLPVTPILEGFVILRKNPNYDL
# Target: T1, FLAG-UBLCP1 (human) (UniProt Q8WVY7)
# T1 sequence: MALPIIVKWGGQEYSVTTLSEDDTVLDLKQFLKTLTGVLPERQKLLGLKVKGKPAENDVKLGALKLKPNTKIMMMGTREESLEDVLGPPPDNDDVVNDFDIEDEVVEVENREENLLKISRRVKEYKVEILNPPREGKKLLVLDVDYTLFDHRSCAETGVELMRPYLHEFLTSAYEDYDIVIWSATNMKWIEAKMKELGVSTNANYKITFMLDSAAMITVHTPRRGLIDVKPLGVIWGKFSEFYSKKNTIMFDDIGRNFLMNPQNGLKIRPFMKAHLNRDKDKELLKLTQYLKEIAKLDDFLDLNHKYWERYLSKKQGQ
# Experiment: affinity purification with mass spectrometry; lysates of HEK293T stably overexpressing FLAG-UBLCP1; IP with anti-UBLCP1 antibody or control rabbit IgG; IP products analysed by mass spectrometry
row,binding,Substance
1,no binding,PSMA1 (from UniProt P25786 1-263)
2,no binding,PSMA2 (from UniProt P25787 1-234)
3,no binding,PSMA3 (from UniProt P25788 1-255)
4,no binding,PSMA5 iso.1 (from UniProt P28066 1-241)
5,no binding,PSMA5 iso.2 (human (endogenous in HEK293T))
6,no binding,PSMA6 (from UniProt P60900 1-246)
7,no binding,PSMA7 (from UniProt O14818 1-248)
8,binds,PSMC1 (from UniProt P62191 1-440)
9,binds,PSMC4 (from UniProt P43686 1-418)
10,binds,PSMC5 (from UniProt P62195 1-406)
11,binds,PSMC6 (from UniProt P62333 1-389)
12,binds,PSMD3 (from UniProt O43242 1-534)
13,binds,PSMD6 (from UniProt Q15008 1-389)
14,binds,PSMD7 (from UniProt P51665 1-324)
15,binds,PSMD10 (from UniProt O75832 1-226)
16,binds,PSMD12 (from UniProt O00232 1-456)
17,binds,PSMD13 (from UniProt Q9UNM6 1-376)
18,binds,PSMD14 (from UniProt O00487 1-310)
19,binds,endogenous PAAF1 (from UniProt Q9BRP4 1-392)
20,binds,endogenous Rpn1 (from UniProt Q13200 1-908)

# No constants are given. Whether binding was seen depends on the method and setting. Binding seen in cells or lysates may run through a third protein. A yes stands for co-enrichment or nearness to the bait. Other partners may have been found. No binding means not detected with the bait. Tags and fused reporters may be left off the sequences shown.
